These are yes or no findings as the source states them, for the method shown. For part of these data: In cells and extracts the contact can be indirect. Some binding calls cover weakened binding; strength is not graded here.
T1: Recombinant human PlexinD1 protein (human) (UniProt Q9Y4D7)
T1 sequence: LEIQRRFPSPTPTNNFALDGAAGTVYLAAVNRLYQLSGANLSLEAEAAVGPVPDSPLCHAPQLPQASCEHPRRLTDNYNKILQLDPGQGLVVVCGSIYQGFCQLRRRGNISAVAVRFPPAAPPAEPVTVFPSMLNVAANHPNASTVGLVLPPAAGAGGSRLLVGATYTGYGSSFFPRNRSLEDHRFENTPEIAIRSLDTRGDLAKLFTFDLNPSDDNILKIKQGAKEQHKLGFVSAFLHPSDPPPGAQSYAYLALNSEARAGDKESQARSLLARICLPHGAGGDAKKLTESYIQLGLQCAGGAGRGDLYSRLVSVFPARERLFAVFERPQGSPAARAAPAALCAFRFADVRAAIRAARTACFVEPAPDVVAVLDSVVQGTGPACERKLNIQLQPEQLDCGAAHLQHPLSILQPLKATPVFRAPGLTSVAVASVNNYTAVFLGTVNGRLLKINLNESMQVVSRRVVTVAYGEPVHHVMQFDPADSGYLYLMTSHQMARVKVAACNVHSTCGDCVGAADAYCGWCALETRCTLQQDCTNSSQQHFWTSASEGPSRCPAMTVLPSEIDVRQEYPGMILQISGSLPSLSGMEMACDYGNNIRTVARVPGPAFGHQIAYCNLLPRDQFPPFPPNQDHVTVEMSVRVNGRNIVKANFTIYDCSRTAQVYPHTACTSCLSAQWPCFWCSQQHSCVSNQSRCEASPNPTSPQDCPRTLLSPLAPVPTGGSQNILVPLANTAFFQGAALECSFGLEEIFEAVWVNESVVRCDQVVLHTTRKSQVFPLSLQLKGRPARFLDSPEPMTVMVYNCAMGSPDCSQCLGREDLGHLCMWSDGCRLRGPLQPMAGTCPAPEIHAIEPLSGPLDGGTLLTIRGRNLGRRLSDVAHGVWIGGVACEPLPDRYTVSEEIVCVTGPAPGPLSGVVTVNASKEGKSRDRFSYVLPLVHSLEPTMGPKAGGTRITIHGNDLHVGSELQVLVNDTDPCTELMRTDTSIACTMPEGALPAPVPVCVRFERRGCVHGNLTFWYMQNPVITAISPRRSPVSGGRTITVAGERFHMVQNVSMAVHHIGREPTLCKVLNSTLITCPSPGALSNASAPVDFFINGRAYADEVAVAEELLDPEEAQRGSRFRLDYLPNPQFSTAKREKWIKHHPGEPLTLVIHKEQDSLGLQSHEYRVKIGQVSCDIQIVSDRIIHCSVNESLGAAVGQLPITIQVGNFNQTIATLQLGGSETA

Amino acid sequences for entries named in this document (tags omitted). Residues count along the entry.
UniProt P21860, residues 20-643: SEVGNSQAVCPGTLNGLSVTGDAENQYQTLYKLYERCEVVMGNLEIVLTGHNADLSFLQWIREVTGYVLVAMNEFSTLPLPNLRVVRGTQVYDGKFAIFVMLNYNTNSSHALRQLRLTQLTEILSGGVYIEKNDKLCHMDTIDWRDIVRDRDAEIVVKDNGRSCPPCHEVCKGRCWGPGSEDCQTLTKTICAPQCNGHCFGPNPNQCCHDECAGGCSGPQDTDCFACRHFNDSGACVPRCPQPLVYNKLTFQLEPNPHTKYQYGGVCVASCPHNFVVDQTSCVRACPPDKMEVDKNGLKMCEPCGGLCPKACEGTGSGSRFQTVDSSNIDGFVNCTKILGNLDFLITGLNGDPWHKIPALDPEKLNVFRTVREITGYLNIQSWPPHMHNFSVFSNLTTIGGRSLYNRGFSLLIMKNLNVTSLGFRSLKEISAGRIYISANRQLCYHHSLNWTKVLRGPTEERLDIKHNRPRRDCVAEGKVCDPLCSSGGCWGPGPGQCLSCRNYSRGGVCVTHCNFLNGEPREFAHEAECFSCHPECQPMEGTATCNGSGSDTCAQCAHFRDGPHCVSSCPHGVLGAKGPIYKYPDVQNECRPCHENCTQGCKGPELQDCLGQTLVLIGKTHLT

T2: PlexinD1 (human (endogenous in LNCaP, C4-2B^ENZR, 22Rv1)), Q9Y4D7
T2 chain: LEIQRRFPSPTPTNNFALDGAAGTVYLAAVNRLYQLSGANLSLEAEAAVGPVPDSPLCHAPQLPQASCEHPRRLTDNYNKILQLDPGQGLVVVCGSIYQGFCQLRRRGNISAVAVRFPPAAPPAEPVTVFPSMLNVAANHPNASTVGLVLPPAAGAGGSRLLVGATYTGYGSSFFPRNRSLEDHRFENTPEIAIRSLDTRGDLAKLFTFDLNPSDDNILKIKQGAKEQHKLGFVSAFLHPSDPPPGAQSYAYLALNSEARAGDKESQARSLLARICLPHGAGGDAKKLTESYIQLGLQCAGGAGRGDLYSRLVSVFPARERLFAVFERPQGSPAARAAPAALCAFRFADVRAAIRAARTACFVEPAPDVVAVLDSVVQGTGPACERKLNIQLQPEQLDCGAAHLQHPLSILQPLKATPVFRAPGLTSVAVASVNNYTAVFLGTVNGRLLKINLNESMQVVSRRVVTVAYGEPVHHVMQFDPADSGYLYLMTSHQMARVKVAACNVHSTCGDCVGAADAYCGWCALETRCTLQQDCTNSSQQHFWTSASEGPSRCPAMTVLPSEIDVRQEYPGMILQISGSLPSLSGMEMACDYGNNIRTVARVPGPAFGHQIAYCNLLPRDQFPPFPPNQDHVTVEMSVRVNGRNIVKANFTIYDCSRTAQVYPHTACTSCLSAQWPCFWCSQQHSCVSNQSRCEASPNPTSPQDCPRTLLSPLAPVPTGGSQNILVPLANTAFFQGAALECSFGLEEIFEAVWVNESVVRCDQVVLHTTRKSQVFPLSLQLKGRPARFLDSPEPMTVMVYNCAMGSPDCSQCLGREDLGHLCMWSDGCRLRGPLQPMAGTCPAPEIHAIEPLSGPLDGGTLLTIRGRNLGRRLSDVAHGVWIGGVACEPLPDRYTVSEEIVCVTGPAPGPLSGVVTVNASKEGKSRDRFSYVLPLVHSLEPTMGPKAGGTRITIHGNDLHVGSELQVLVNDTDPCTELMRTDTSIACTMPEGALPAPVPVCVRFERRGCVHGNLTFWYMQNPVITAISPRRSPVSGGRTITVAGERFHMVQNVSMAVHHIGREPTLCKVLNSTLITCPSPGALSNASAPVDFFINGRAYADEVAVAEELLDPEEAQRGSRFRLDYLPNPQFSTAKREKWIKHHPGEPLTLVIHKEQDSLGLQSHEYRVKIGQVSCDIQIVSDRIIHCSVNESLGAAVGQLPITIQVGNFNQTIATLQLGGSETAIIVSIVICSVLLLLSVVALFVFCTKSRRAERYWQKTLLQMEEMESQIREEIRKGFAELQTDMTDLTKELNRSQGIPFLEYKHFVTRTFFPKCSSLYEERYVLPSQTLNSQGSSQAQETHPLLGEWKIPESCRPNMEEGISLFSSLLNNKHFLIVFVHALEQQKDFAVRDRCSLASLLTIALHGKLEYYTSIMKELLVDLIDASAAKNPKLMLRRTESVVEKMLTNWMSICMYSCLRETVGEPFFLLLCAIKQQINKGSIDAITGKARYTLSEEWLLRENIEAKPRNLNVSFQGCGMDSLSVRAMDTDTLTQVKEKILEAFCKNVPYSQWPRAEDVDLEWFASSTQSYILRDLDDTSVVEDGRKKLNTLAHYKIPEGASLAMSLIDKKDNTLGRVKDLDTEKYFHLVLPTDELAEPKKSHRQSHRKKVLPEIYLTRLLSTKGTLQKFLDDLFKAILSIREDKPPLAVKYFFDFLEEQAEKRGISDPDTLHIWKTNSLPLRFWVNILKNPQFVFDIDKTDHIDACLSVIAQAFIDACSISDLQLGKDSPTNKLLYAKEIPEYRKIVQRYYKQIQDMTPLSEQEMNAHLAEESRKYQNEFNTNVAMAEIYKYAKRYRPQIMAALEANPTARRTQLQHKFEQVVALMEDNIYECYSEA


How the values were obtained:
[1] = target: T1, Recombinant human PlexinD1 protein (human); assay: co-IP; 10 ug each of recombinant PlexinD1 and ErbB3 in 300 ul IP lysis/wash buffer, 4 C, 4 h; PlexinD1 antibody on Protein G magnetic beads; blots for PlexinD1 and ErbB3; both purified
[2] = target: T2, PlexinD1 (human (endogenous in LNCaP, …)); assay: proximity ligation; endogenous proteins in fixed 22Rv1 (and C4-2B^ENZR) cells treated with D1SP (1 uM, 2 h) or PBS as vehicle; Duolink In Situ Red kit; cytoplasmic fluorescence per cell; conditions: remark: other sources report otherwise
[3] = target: T2, PlexinD1 (human (endogenous in LNCaP, …)); assay: proximity ligation; endogenous proteins in fixed cells (LNCaP and C4-2B^ENZR); pairs of primary antibodies, Duolink In Situ Red kit; cytoplasmic fluorescence per cell; for PlexinD1-ErbB3/cMet C4-2B^ENZR cells also treated with recombinant Sema3E/Sema3C (200-500 ng/ml, 4 h) or SEMA3E/SEMA3C siRNA (10 uM, 48 h); conditions: remark: other sources report otherwise

| binding [1] | binding [2] | binding [3] | Molecule |
| --- | --- | --- | --- |
| binds | – | – | Recombinant human ErbB3 protein (from UniProt P21860 20-643) (receptor) |
| – | binds | binds | Sema3C, Q99985 21-751 (ligand) GSSQPQARVYLTFDELRETKTSEYFSLSHHPLDYRILLMDEDQDRIYVGSKDHILSLNINNISQEALSVFWPASTIKVEECKMAGKDPTHGCGNFVRVIQTFNRTHLYVCGSGAFSPVCTYLNRGRRSEDQVFMIDSKCESGKGRCSFNPNVNTVSVMINEELFSGMYIDFMGTDAAIFRSLTKRNAVRTDQHNSKWLSEPMFVDAHVIPDGTDPNDAKVYFFFKEKLTDNNRSTKQIHSMIARICPNDTGGLRSLVNKWTTFLKARLVCSVTDEDGPETHFDELEDVFLLETDNPRTTLVYGIFTTSSSVFKGSAVCVYHLSDIQTVFNGPFAHKEGPNHQLISYQGRIPYPRPGTCPGGAFTPNMRTTKEFPDDVVTFIRNHPLMYNSIYPIHKRPLIVRIGTDYKYTKIAVDRVNAADGRYHVLFLGTDRGTVQKVVVLPTNNSVSGELILEELEVFKNHAPITTMKISSKKQQLYVSSNEGVSQVSLHRCHIYGTACADCCLARDPYCAWDGHSCSRFYPTGKRRSRRQDVRHGNPLTQCRGFNLKAYRNAAEIVQYGVKNNTTFLECAPKSPQASIKWLLQKDKDRRKEVKLNERIIATSQGLLIRSVQGSDQGLYHCIATENSFKQTIAKINFKVLDSEMVAVVTDKWSPWTWASSVRALPFHPKDIMGAFSHSEMQMINQYCKDTRQQHQQGDESQKMRGDYGKLKALINSRKSRNRRNQLPES |
